Publication doi:10.1101/2021.06.28.450235
No constants are given. Whether binding was seen depends on the method and setting. Some results given as binding are weak or reduced against the parent protein; the word gives no strength.

B1: Psb34 auxiliary protein (protein, UniProt Q8DMP8 1-56)
chain: MRYTTDEGGRLNNFAIEPKVYQAQPWTPQQKVRAALLVGGGLLLVAGLVAIAVGVS
B2: Psb27 auxiliary protein (protein, UniProt Q8DG60 22-134)
chain: CANVPTGLTGNFREDTLALISSLREAIALPENDPNKKAAQAEARKKLNDFFALYRRDDSLRSLSSFMTMQTALNSLAGHYSSYPNRPLPEKLKARLEQEFKQVELALDREAKS
B3: Psb28 auxiliary protein (protein, UniProt Q8DLJ8 1-116)
chain: MGAMAEIQFIRGINEEVVPDVRLTRARDGSSGQAMFYFDNPKIVQEGNLEVTGMYMVDEEGEIVTRDVNAKFINGQPVAIEATYTMRSPQEWDRFIRFMDRYAASHGLGFQKSENS

Each binder was assayed against CP43 subunit of photosystem II with a C-terminal Twin-Strep-tag (T. elongatus) (UniProt Q8DIF8) (assay: affinity co-purification read by SDS-PAGE).

binding | Binder
binds | B1
binds | B2
binds | B3
